Assay results reported in paper PMC11723922.
Results are given in words; binding and its absence hold for the method and conditions named. In cells and extracts the contact can be indirect. Binding calls can cover weak binding; strength is not graded here.

How the values were obtained:
[1] = target: eGFP-TGM4 fusion, full length (TGM4 D1-5) (Heligmosomoides polygyrus); assay: co-IP; GFP-TRAP beads on lysates (10 mM Tris-HCl pH 7.5, 150 mM NaCl, 0.5 mM EDTA, 0.5% NP-40) of MFB-F11 or RAW264.7 cells transfected with eGFP-TGM fusions; 1 h at 4 °C; western blot for endogenous TβRI, TβRII, CD44
[2] = target: eGFP-TGM1 fusion (TGM1 D1-5) (Heligmosomoides polygyrus); assay: as above

B1: CD44, endogenous mouse (receptor, UniProt P15379 23-778)
chain: QIDLNVTCRYAGVFHVEKNGRYSISRTEAADLCQAFNSTLPTMDQMKLALSKGFETCRYGFIEGNVVIPRIHPNAICAANHTGVYILVTSNTSHYDTYCFNASAPPEEDCTSVTDLPNSFDGPVTITIVNRDGTRYSKKGEYRTHQEDIDASNIIDDDVSSGSTIEKSTPEGYILHTYLPTEQPTGDQDDSFFIRSTLATIASTVHSKSHAAAQKQNNWIWSWFGNSQSTTQTQEPTTSATTALMTTPETPPKRQEAQNWFSWLFQPSESKSHLHTTTKMPGTESNTNPTGWEPNEENEDETDTYPSFSGSGIDDDEDFISSTIATTPRVSARTEDNQDWTQWKPNHSNPEVLLQTTTRMADIDRISTSAHGENWTPEPQPPFNNHEYQDEEETPHATSTTPNSTAEAAATQQETWFQNGWQGKNPPTPSEDSHVTEGTTASAHNNHPSQRITTQSQEDVSWTDFFDPISHPMGQGHQTESKDTDSSHSTTLQPTAAPNTHLVEDLNRTGPLSVTTPQSHSQNFSTLHGEPEEDENYPTTSILPSSTKSSAKDARRGGSLPTDTTTSVEGYTFQYPDTMENGTLFPVTPAKTEVFGETEVTLATDSNVNVDGSLPGDRDSSKDSRGSSRTVTHGSELAGHSSANQDSGVTTTSGPMRRPQIPEWLIILASLLALALILAVCIAVNSRRRCGQKKKLVINGGNGTVEDRKPSELNGEASKSQEMVHLVNKEPSETPDQCMTADETRNLQSVDMKIGV
- binding [1]: binds
- binding [2]: binds
